# Experimental data published in article doi:10.1101/2022.04.08.487668.
# By UniProt entry, the sequences of proteins in these tests, tags left out. Where a name states a change or a piece, a line headed by the entry shows the natural chain unless it says otherwise.
# UniProt P10961: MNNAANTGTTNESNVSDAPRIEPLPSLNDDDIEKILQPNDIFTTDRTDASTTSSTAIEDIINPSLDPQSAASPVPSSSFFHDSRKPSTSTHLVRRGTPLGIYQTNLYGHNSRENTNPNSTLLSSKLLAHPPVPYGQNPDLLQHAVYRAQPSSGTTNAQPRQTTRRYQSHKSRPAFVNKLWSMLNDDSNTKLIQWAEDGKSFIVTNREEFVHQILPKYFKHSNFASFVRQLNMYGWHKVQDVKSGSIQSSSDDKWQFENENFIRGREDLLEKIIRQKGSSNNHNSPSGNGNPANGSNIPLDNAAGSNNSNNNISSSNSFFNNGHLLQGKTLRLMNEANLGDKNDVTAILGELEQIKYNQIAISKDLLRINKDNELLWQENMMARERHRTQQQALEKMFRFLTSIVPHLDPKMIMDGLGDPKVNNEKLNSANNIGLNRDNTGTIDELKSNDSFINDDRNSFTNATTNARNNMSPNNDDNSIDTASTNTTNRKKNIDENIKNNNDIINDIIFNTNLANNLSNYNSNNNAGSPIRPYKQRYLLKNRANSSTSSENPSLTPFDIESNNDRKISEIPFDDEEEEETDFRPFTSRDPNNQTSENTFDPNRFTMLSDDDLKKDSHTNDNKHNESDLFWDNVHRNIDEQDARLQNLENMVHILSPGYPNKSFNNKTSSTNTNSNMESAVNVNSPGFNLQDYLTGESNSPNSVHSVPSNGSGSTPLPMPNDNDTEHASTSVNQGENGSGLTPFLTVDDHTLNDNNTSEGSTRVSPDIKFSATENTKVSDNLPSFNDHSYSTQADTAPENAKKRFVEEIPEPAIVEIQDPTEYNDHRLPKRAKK
# UniProt P10591: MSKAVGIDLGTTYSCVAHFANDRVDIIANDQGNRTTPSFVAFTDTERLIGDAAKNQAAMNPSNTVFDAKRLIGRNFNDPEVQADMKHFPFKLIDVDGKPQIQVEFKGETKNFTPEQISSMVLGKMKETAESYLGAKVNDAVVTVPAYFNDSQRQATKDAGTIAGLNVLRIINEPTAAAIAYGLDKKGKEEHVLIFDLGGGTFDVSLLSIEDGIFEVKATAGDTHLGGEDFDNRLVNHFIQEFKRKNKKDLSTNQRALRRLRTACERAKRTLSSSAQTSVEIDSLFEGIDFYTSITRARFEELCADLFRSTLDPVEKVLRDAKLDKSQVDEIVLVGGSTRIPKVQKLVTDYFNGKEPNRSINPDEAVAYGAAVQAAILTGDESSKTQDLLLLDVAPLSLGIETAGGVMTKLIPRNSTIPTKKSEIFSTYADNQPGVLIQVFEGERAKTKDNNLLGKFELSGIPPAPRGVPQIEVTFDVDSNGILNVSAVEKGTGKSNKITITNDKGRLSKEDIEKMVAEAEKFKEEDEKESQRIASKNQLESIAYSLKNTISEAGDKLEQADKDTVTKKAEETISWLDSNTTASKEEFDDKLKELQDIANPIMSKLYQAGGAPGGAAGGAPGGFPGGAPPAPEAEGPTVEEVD
# Results are given in words; binding and its absence hold for the method and conditions named. In cells and extracts the contact can be indirect. Some binding calls cover weakened binding; strength is not graded here.
# Biological target: Hsf1-GFP-FLAG (S. cerevisiae) (UniProt P10961)
# Experiment: co-IP
row,binding,Substance
1,binds,"Ssa1-2CS (C264S, C303S) (from UniProt P10591 1-642)"
2,no binding,"Ssa1-2CD (C264D, C303D) (from UniProt P10591 1-642)"
3,binds,Ssa1 (wild type) (from UniProt P10591 1-642)
